According to PubChem BioAssay AID504834 (National Center for Advancing Translational Sciences (NCATS), 2011):
Hit rate of the full screen: of about 320,000 compounds, about 22,000 (6.9%) were called active. Inconclusive means that the source gave no clear call. Such entries were picked first, then a sample of the others. Calls follow the shape of the dose curve; as a rule, active = well fitted inhibition curve with a large enough effect; inconclusive = small, poorly fitted or top-dose-only effect, or another doubt; inactive = no such curve, though single readings can be large or run the other way. A potency beside an inconclusive call is a rough fit, not a confirmed value.

Experiment: Primary qHTS for delayed death inhibitors of the malarial parasite plastid, 96 hour incubation
Conditions: P. falciparum luciferase reporter growth; series mostly up to 28.7 µM; activity change, negative = inhibition: at the top concentration
Method in brief: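 P. falciparum expressing integrated firefly luciferase grown in erythrocytes (2% hematocrit, 0.05% parasitemia final) with compounds for 96 hours at 37 C, 5% CO2. Growth inhibition read as loss of luminescence after adding luciferase detection reagent.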
% is scaled to controls: 0 for no effect and ±100 for the full control effect; potency is read from the fitted curve at half-maximal effect.

Row | Compound | Potency | activity change, negative = inhibition
1 | COc1ccc(NC(=O)c2[nH]c(C)c(C(C)=O)c2C)cc1S(=O)(=O)Nc1ccc(Br)cc1 | inconclusive: 18.5 µM [inhibitor, single point] | 
2 | O=C(O)Cc1sc(NCCc2ccccc2)nc1-c1ccc(F)cc1 |  | inactive: -9.99%
3 | CC1=C(C(=O)Nc2ccccn2)C(c2ccc(F)cc2)n2ncnc2N1 (centres undefined) |  | inactive: -5.07%
4 | COc1cc2[nH]c(=O)n(CCC(=O)N3CCN(Cc4ccccc4)CC3)c(=O)c2cc1OC | inconclusive: 11.7 µM [inhibitor, partial curve] | 
5 | CCOC(=O)C1=C(C)C(c2ccccc2)NC(=S)N1 (centres undefined) | inconclusive: 2.08 µM [inhibitor, partial curve] | 
6 | CC(=O)N/C(N)=N/c1nc2cc([N+](=O)[O-])ccc2o1 |  | inactive: 125%
7 | CCC(C)c1ccccc1OCCCN(C)Cc1ccccc1 (centres undefined) | inconclusive: 3.7 µM [inhibitor, single point] | 
8 | CCC1CCCCN1CCCNC(=O)c1ccc(N2CCOCC2)c(NS(=O)(=O)c2ccc(OC)cc2)c1 (centres undefined) | inconclusive: 18.5 µM [inhibitor, single point] | 
9 | Cc1cnc2c(c1)C(=O)c1ccccc1-2 |  | inactive: 1.69%
10 | CC(=O)C1=C(C)NC(SCc2cccc3ccccc23)=C(C#N)C1c1ccco1 (centres undefined) | active: 2.94 µM | 
11 | CC(C)(C)CC(=O)Nc1cc2c3c(c1)CCN3C(=O)CC2 |  | inactive: 46.8%
12 | Cc1ccc(NS(=O)(=O)c2ccc(C(=O)NCCCN3CCCC3=O)cc2)cc1 | inconclusive: 18.5 µM [inhibitor, single point] | 
13 | COc1ccc2c(c1)[C@H]1[C@H](CO2)[C@H](c2ccccc2)[C@]2(C)C(=O)Nc3ccccc3C(=O)N12 | inconclusive: 18.5 µM [inhibitor, single point] | 
14 | CCCn1c(=N)c(S(=O)(=O)c2ccccc2)cc2c(=O)n3ccccc3nc21 | inconclusive: 8.28 µM [inhibitor, single point] | 
15 | C=CCN(CC=C)C(=S)NC(=O)/C=C/c1ccc(C)cc1 | inconclusive: 0.294 µM [inhibitor, full curve, poor fit] | 
16 | Cc1ccc(Oc2ncc(CN3CCOCC3)s2)cc1 |  | inactive: 163%
17 | Cc1ccc2sc(NC(=O)c3cccc(N4C(=O)CCC4=O)c3)nc2c1C |  | inactive: 47.1%
18 | CCNC(=O)CC1C(=O)N(c2ccccc2)C(=O)N1Cc1ccc(OC)cc1 (centres undefined) | inconclusive: 9.28 µM [inhibitor, single point] | 
19 | CCCc1cc(=O)oc2c(C)c(OC(C)C(=O)NCCN3CCOCC3)ccc12 (centres undefined) | inconclusive: 13.1 µM [inhibitor, single point] | 
20 | Cc1nccn1-c1cc(C(C)(C)C)nc2c(-c3ccccc3)cnn12 |  | inactive: -11.8%
21 | COc1ccc(NS(=O)(=O)c2cc(NC(=O)CCNC(C)=O)ccc2N2CCCCC2)cc1 | inconclusive: 13.1 µM [inhibitor, single point] | 
22 | O=C(CSc1nnnn1-c1ccc2c(c1)CCC2)NCc1cccs1 | inconclusive: 18.5 µM [inhibitor, single point] | 
23 | Cc1ccc(O)c([C@H](CCN(C(C)C)C(C)C)c2ccccc2)c1 | inactive | 

Row | Compound | Potency | activity change, negative = inhibition
24 | CCOc1ccc2[nH]c3nc(SCC(=O)NCC4CCCO4)nnc3c2c1 (centres undefined) | inconclusive: 11.7 µM [inhibitor, single point] | 
25 | Cc1ccccc1C(=O)NC(=S)Nc1ncccn1 | inconclusive: 18.5 µM [inhibitor, partial curve, poor fit] | 
26 | CCC(=NCCCn1ccnc1)c1c(O)n(Cc2ccccc2)c(=O)[nH]c1=O | inconclusive: 18.5 µM [inhibitor, single point] | 
27 | CCOC(=O)Cc1c(C)nc2c(-c3cccc(Br)c3)cnn2c1C | inconclusive: 18.5 µM [inhibitor, single point] | 
28 | CCCCOc1cccc(C(=O)Nc2ccc(NC(=O)c3cccs3)cc2)c1 | active: 4.65 µM | 
29 | Cc1cccc(C)c1OCC(=O)Nc1ccc(NC(=O)c2ccco2)cc1 | inconclusive: 13.1 µM [inhibitor, single point] | 
30 | COC(=O)c1ccc(CSc2nnc(-c3c[nH]c4ccccc34)n2C)o1 | inconclusive: 9.28 µM [inhibitor, partial curve, poor fit] | 
31 | O=C(O)c1ccc(S(=O)(=O)N2CCOCC2)o1 |  | inactive: 32.6%
32 | O=C(Nc1ccncc1)c1ccc(Cl)c(Cl)c1 | active: 2.94 µM | 
33 | CC(C)(C)OC(=O)N[C@@H](COCc1ccccc1)C(=O)N[C@@H](CO)[C@H](O)[C@@H]1C[C@@H]1C(=O)N1CCCC1 | inconclusive: 18.5 µM [inhibitor, single point] | 
34 | Cc1nonc1NC(=O)c1oc2ccc(F)cc2c1C |  | inactive: -16.2%
35 | Fc1ccc(NC(=S)Nc2ccc(F)c(Cl)c2)cc1Cl | inconclusive: 2.33 µM [inhibitor, partial curve, poor fit] | 
36 | CCC(=O)Nc1nnc(S(=O)(=O)N2CCCCCC2)s1 |  | inactive: 3.79%
37 | N#Cc1nc(-c2ccc(Cl)cc2)oc1NCCc1ccccn1 | inconclusive: 0.522 µM [inhibitor, full curve, poor fit] | 
38 | CCOC(=O)c1cc2c(=O)n3ccccc3nc2n(Cc2ccco2)c1=NC(=O)c1ccc(OC)cc1OC | inconclusive: 0.928 µM [inhibitor, partial curve] | 
39 | CSc1cccc(NC(=O)/C=C/c2ccc(Cl)cc2)c1 |  | inactive: -28.4%
40 | COC(CNC(=O)[C@H](CSCc1ccccc1)N1Cc2ccccc2C1=O)OC | inconclusive: 16.5 µM [inhibitor, partial curve, poor fit] | 
41 | Cc1ccc(NC(=O)c2ccco2)c([N+](=O)[O-])c1 | inconclusive: 4.15 µM [inhibitor, partial curve, poor fit] | 
42 | Cc1ccc(C(=O)n2cnnc2N)cc1 | inconclusive: 0.0828 µM [inhibitor, full curve, poor fit] | 
43 | O=[N+]([O-])c1cc(S(=O)(=O)C(F)(F)F)ccc1NCC1CCCO1 (centres undefined) |  | inactive: 6.45%
44 | Cc1ccc(NC(=O)C2CCCN(S(=O)(=O)c3c(C)noc3/C=C/N(C)C)C2)c(C)c1 (centres undefined) | active: 9.28 µM | 
45 | O=C(NCc1ccccc1Cl)c1cccc(NC(=O)c2ccccc2)c1 | inconclusive: 10.4 µM [inhibitor, single point] | 
46 | COc1cnc(-c2ccccn2)nc1Sc1ccccc1 | inconclusive: 0.657 µM [inhibitor, full curve] | 

A different layout for 5 compounds above:
Row	Compound	Potency	activity change, negative = inhibition
42	Cc1ccc(C(=O)n2cnnc2N)cc1	inconclusive: 0.0828 µM [inhibitor, full curve, poor fit]	
43	O=[N+]([O-])c1cc(S(=O)(=O)C(F)(F)F)ccc1NCC1CCCO1 (centres undefined)		inactive: 6.45%
44	Cc1ccc(NC(=O)C2CCCN(S(=O)(=O)c3c(C)noc3/C=C/N(C)C)C2)c(C)c1 (centres undefined)	active: 9.28 µM	
45	O=C(NCc1ccccc1Cl)c1cccc(NC(=O)c2ccccc2)c1	inconclusive: 10.4 µM [inhibitor, single point]	
46	COc1cnc(-c2ccccn2)nc1Sc1ccccc1	inconclusive: 0.657 µM [inhibitor, full curve]	

(list continues)

Row | Compound | Potency | activity change, negative = inhibition
47 | Cc1ccccc1C(=O)c1cccn1CC(=O)NC(C)c1ccccc1 (centres undefined) |  | inactive: -17.2%
48 | COc1ccccc1NC(=O)c1ccc(Cl)c(S(=O)(=O)N2CCCCC2)c1 | inconclusive: 10.4 µM [inhibitor, single point] | 
49 | CCOc1ccc(-c2nnn(CC(=O)Nc3cccc(OC)c3)n2)cc1OCC | active: 11.7 µM | 
50 | O=C(Cc1ccc(Cl)cc1)NNC(=O)c1cnccn1 |  | inactive: -51.3%
51 | CCCSc1ccc(-c2nn(-c3ccccc3)cc2/C=C(/C#N)C(=O)N2CCOCC2)cc1 | inconclusive: 18.5 µM [inhibitor, single point] | 
52 | N#CC1=C(N)Oc2n[nH]c(-c3ccccn3)c2C1c1c(F)cccc1Cl (centres undefined) | inconclusive: 5.22 µM [inhibitor, partial curve, poor fit] | 
53 | O=C1c2ccc3c4c(ccc(c24)C(=O)N1c1ccc2ccccc2c1)CC3 | inconclusive: 4.65 µM [inhibitor, partial curve, poor fit] | 
54 | Cc1nc2ccc(NC(=O)CCS(=O)(=O)c3ccc(Cl)cc3)cc2s1 | inconclusive: 13.1 µM [inhibitor, single point] | 
55 | Cc1ccc(O)c(C(=O)c2cc(C#N)c(=O)n(CC3CCCO3)c2)c1 (centres undefined) | inconclusive: 2.33 µM [inhibitor, single point] | 
56 | CCN1CCN(C(c2cccs2)C(C)NC(=O)c2ccccc2)CC1 (centres undefined) |  | inactive: 7.91%
57 | CCOC(=O)C1CCN(C(=O)CC(C)c2ccccc2)CC1 (centres undefined) | inconclusive: 16.5 µM [inhibitor, partial curve, poor fit] | 
58 | COc1cccc(-n2nnnc2SCC(=O)Nc2nc3c(s2)CCCC3)c1 | inconclusive: 10.4 µM [inhibitor, single point] | 
59 | COc1cc(-c2nn3c(-c4cccnc4)nnc3s2)cc(OC)c1OC | inconclusive: 7.38 µM [inhibitor, partial curve, poor fit] | 
60 | CCOc1ccc(S(=O)(=O)NCCC(=O)NCCc2ccc(OCC)c(OCC)c2)cc1 | inconclusive: 18.5 µM [inhibitor, single point] | 
61 | Cc1cc(OCc2cc(C(=O)N(C)C3CCOC3)no2)cc(C)c1Cl (centres undefined) |  | inactive: 70.3%
62 | O=C(NCc1ccc(F)cc1)c1ccc(N2CCc3ccccc32)c([N+](=O)[O-])c1 | inconclusive: 18.5 µM [inhibitor, single point] | 
63 | COc1ccc(CNc2ccccc2)cc1Br | inconclusive: 13.1 µM [inhibitor, single point] | 
64 | CCCNS(=O)(=O)c1cccc(C(=O)OCc2cc(=O)oc3cc(OC)ccc23)c1 | inconclusive: 16.5 µM [inhibitor, single point] | 
65 | O=C(NC1CCCCCC1)C(=S)NCc1ccccc1 | inconclusive: 1.31 µM [inhibitor, full curve, poor fit] | 
66 | Cc1ccccc1CC1(CO)CCCN(C(=O)c2ccccc2N(C)C)C1 (centres undefined) | active: 0.928 µM | 
67 | Cc1ccc(C)c(NP(=O)(Oc2ccccc2)Oc2ccccc2)c1 | inconclusive: 13.1 µM [inhibitor, partial curve] | 
68 | O=C(Nc1ccc(S(=O)(=O)N2CCCC2)cc1)c1cccs1 | inconclusive: 5.86 µM [inhibitor, partial curve, poor fit] | 
69 | CN(CCN1CCOCC1)Cc1nc(-c2cccs2)no1 | inconclusive: 16.5 µM [inhibitor, partial curve, poor fit] | 
